We go through 4 sequences from paper PMC11323563, “Multiple levels of transcriptional regulation control glycolate metabolism in Paracoccus denitrificans” (mBio, 2024).

The chains behind the UniProt entries cited, without tags or fusion partners. Where a name states a change or a piece, a line headed by the entry shows the natural chain unless it says otherwise.
UniProt A1B8Z4: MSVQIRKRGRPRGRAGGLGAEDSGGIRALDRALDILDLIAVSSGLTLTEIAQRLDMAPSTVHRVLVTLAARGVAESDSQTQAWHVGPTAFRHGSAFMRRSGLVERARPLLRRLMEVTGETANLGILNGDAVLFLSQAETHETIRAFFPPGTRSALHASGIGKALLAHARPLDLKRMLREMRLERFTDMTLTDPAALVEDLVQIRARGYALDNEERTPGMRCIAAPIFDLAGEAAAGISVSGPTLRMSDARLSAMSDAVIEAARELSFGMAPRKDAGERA

Construct, isoform or probe ends are uncertain for at least one entry. For some of these results: No signal at the amounts used counts as a negative. For some of these results: At least one verdict was read from the data and is not stated in words by the source. A weaker result is weaker than the reference pair of the same experiment.

Data set [1] deals with T1, GlcR (Paracoccus denitrificans DSM 413) (UniProt A1BAC0).
T1 sequence: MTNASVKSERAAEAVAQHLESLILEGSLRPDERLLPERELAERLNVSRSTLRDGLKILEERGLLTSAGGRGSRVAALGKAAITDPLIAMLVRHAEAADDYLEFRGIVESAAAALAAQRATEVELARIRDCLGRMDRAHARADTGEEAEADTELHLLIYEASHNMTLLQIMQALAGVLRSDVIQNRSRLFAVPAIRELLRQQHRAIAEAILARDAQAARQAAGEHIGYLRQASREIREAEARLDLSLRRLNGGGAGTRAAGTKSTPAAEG
In words: EMSA. As to conditions: glycolate 0.5-2 mM, 1,000x GlcR; EMSA: 20 mM K phosphate pH 7.0, 1 mM DTT, 5 mM MgCl2, 50 mM KCl, 15 ug/mL BSA, 50 ug/mL herring sperm DNA, 5% glycerol, 0.1% Tween20, DNA 0.025 pM, 37 C 20 min; recombinant protein; residues 1-269; protein details: N-terminal His (pET16b); label: 5' Dyomics 781 on reverse primer; probe letters rebuilt from the primers and the genome.

Data set [2] addresses T2, MGlcR (MBP-GlcR) (Paracoccus denitrificans DSM 413) (UniProt A1BAC0).
T2 sequence: T1 sequence
In words: fluorescence polarization. Conditions: FP: 50 mM HEPES pH 7.5, 100 mM NaCl, 0.01% Triton X-100, 10 nM DNA, room temperature 10 min, protein details: N-terminal His-MBP. Background: In fluorescence polarisation assays a small probe gives low polarisation when free and higher when bound to something large.

Data set [3] has as its target BhcR (Paracoccus denitrificans DSM 413) (UniProt A1B8Z4). Briefly: EMSA. Conditions: glyoxylate 0.1-5 mM, 40,000x BhcR, decreased, not abolished; EMSA: 20 mM K phosphate pH 7.0, 1 mM DTT, 5 mM MgCl2, 50 mM KCl, 15 ug/mL BSA, 50 ug/mL herring sperm DNA, 5% glycerol, 0.1% Tween20, DNA 0.025 pM, 37 C 20 min; recombinant protein; protein details: N-terminal His (pET16b); label: 5' Dyomics 781 on reverse primer; probe letters rebuilt from the primers and the genome. A general note: In EMSA bound probe runs differently from free probe, usually more slowly.

For the sequence “CAAGCTCTCCTCCCTTGGTCGAACGGCAGGCCCGTGTCCTGCCCTGCATTCTTGGTATAATTTTCAGACCACATTAGTCAATCGGTATTTTTCTGGACCGACACGCCCGTCCTGTGCTTACATGGCAGGGATCCGACAACCGCATGAGCGCCCATG (double strand) [Pglc 156 bp]”, in data set [1], the binding result is given as “binds more weakly”.

For “TCCCTATCAGTGATAGAGA (double strand) [[6FAM]-tetO]”, in data set [2] (10 nM DNA, MGlcR up to 6 uM in dilution series, recombinant …, label: 5' 6FAM on S36), the binding result was “no binding”.

Regarding “GGAATGAAGATCGGGTTCTGGCTGGTCATGGCAATTCCTCCTGCGCTTGTGGACCAAGCTACGTTTTGCTGTCCATTGATGCAATTTTTCTGAAAAATATTTCGCAATCGCGGAAAAATGACCTAAAGTGTCGTGGAATCAGATCGTTGCTCTTTTCCAAAGCCAAAGAGTGATTTTCAACAAACTCAGAAAGTTGTCGAAAGGAAAAATTGAATGTCGGTTCAAATCCGCAAAAGGG (double strand) [Pbhc 238 bp]”, in data set [3], the binding result is recorded as “binds more weakly”.

In the case of “GCTCTCCTCCCTTGGTCGAACGGCAGGCCCGTGTCCTGCCCTGCATTCTTGGTATAATTTTCAGACCACATTAGTCAATCGGTATTTTTCTGGACCGACACGCCCGTCCTGTGCTTACATGGCAGGGATCCGACAACCGCATGAGCGCCC (double strand) [[6FAM]-Pglc]”, the binding result in data set [2] (glycolate 0.1-100 mM, 750 nM MGlcR, recombinant protein, label: 5' 6FAM on S34 strand, probe letters rebuilt from the primers and the genome) is listed as “binds more weakly”.
